Results from US8063209B2, “Phosphonyl ester conjugates as prodrugs” (priority 2004, dated 2011).
Some of these results come from one statement about several compounds together. Some ranges recur; such a range may be that of the whole group of compounds.

Test: Single pass intestinal perfusion with portal vein blood collection
Assay type: in vivo
Conditions: rat single pass intestinal perfusion with portal vein collection
Experimental: Male albino Sprague-Dawley rats, 9-10 weeks old and weighing 250-400 g were used in the study. Prior to each experiment, the rats were fasted for 18 h with free access to water. The rats were anesthetized with an i.m. injection of ketamine/xylazinelbutorphanol (87, 6, and 0.2 mg/kg body weight, respectively). The abdomen was opened by a midline incision of 4-5 cm. A suitable intestinal segment of approximately 10-20 cm was cannulated on two ends and connected to a syringe pump that guided the solution through a water bath of 37° C. This isolated segment was then rinsed with buffer at the respective pH at a flow-rate of 0.5 ml/min in order to clean out any residual debris. […]
Rat plasma samples were acidified and processed with solid phase extraction. […] Samples were analyzed using a LC-MS/MS system (Micromass Quattro II, HP 1100). […]
From the plasma concentration of compound, the mesenteric permeability was determined by substitution into Eq. (1), Flux=(A)(Pe-mes)(Ci) Eq. (1) where Flux is equal to the portal blood flow (estimated at 1 ml/min in the rat) X the steady state mesenteric blood concentration of cidofovir-based compound, A is the absorptive area of the intestine (estimated at 12.56 cm^2 in the rat intestine), Pe-mes is the mesenteric permeability (cm/s), and Ci is the starting concentration of the drug in the perfusate ([…]).

Structure (SMILES): COC(=O)C(COP1(=O)COC(Cn2ccc(N)nc2=O)CO1)NC(=O)C(C)N (centres unmarked) [Compound 6, cHPMPC-Ala-Ser(OMe)]
- increase in permeability relative to cidofovir and cyclic cidofovir: 10-20 fold

Structure (SMILES): COC(=O)[C@H](COP1(=O)CO[C@@H](Cn2ccc(N)nc2=O)CO1)NC(=O)[C@@H](N)C(C)C (mixture of isomers) [Compound 4, cHPMPC-Val-Ser(OMe)]
- increase in permeability relative to cidofovir and cyclic cidofovir: 10-20 fold
